Results taken from the supplement of paper PMC3334620.
In all, about 33,000 sequences were measured (“E-score (-0.5 to 0.5)”: median about -8e-05, highest 2% from about 0.23 on). The list shows a part of the results.

Target: T1, Nrg2 (UniProt P38082)
T1 sequence: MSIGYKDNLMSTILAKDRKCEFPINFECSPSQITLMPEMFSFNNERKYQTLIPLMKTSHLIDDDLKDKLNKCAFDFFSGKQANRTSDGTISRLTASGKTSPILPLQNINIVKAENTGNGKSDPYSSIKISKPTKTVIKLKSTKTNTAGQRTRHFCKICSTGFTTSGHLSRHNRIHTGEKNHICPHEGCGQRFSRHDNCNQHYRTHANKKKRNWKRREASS
Assay: PBM E-score (8-mer binding enrichment) (E-score (-0.5 to 0.5)); higher = stronger / more preferred TF binding
Conditions: protein concentration: 100 nM; construct: GST-full length
Summary of the method: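 Universal all-10-mer Agilent arrays, fresh or stripped once, were converted to double-stranded form by primer extension. GST-tagged yeast transcription factors from PURExpress in vitro transcription/translation, full-length or DNA-binding domain only, were applied at about 100-200 nM and detected with fluorescent anti-GST. After masliner normalisation, the Universal PBM Analysis Suite scored each ungapped eight-base word together with its reverse complement by E-score.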

Going from TAGACTAA to GCACATCA, the “PBM E-score” value rises from -0.0628 to 0.0661.

First: CACTGTGG
Second: GGGCCAAA
The “PBM E-score” value of the first is lower: -0.0836 for the first, 0.0718 for the second.

Compared with CGTTGATA, ATTCAATC is higher in “PBM E-score” value: 0.107 for the first, 0.131 for the second.

Going from GTTCCAGA to AGTAAGGC, the “PBM E-score” value falls from -0.0282 to -0.036.

First: CCGGAAGA
Second: GAGTTGGC
The “PBM E-score” value of the first is higher: -0.0885 for the first, -0.143 for the second.

Going from CCCCAATA to AACCGACG, the “PBM E-score” value rises from -0.0225 to 0.159.

Compared with AAACCATC, AGTTCTAA is lower in “PBM E-score” value: 0.103 for the first, -0.00284 for the second.

First: AGTGACTC
Second: ACCACGCA
The “PBM E-score” value of the first is lower: -0.0845 for the first, -0.0616 for the second.

Going from CATACGCC to CTAGTGTC, the “PBM E-score” value rises from -0.0382 to -0.0251.

First: AATTAATT
Second: GTTCTCGA
The “PBM E-score” value of the first is lower: -0.112 for the first, 0.0127 for the second.

Going from AGGACGTG to AGGCCCCC, the “PBM E-score” value falls from -0.0972 to -0.405.

First: AATCCCCG
Second: ATCCGGGC
The “PBM E-score” value of the first is higher: 0.0281 for the first, 0.0265 for the second.

Compared with TAAGTCGA, GTTCGATA is higher in “PBM E-score” value: -0.0659 for the first, 0.208 for the second.

Going from ACCTTGGA to AGAGAGTG, the “PBM E-score” value falls from -0.0164 to -0.055.

First: AAAGGTCC
Second: ACGTGAGA
The “PBM E-score” value of the first is higher: 0.0985 for the first, -0.11 for the second.

Compared with ACTTATGA, GCTTTTTA is higher in “PBM E-score” value: -0.0626 for the first, 0.0175 for the second.

Going from CTGGATAA to ACCTCCAG, the “PBM E-score” value falls from 0.0304 to -0.212.

Going from ACGGGTAG to CGACAGGC, the “PBM E-score” value rises from -0.0786 to -0.0567.

Compared with CAGGAACG, ATGTACGA is higher in “PBM E-score” value: 0.0488 for the first, 0.0829 for the second.

First: AAGCTATC
Second: AAAAGCGT
The “PBM E-score” value of the first is higher: 0.153 for the first, -0.0481 for the second.

Going from GCCATGAC to GTAATTCA, the “PBM E-score” value rises from -0.214 to 0.105.

Going from CTGAGAGA to ATCAGTGC, the “PBM E-score” value rises from -0.101 to -0.0746.

Compared with GTAACCGA, ATGAAGTG is higher in “PBM E-score” value: 0.0943 for the first, 0.235 for the second.

Going from ACCGCAAT to CATCTTGC, the “PBM E-score” value falls from 0.213 to 0.0927.

Compared with CCACAGCA, ATGCTAAA is lower in “PBM E-score” value: 0.0353 for the first, -0.0175 for the second.

Compared with CAAAAATC, AGCGTAAA is higher in “PBM E-score” value: -0.168 for the first, -0.0637 for the second.

Compared with AACACGCG, AAAATTTG is lower in “PBM E-score” value: -0.00818 for the first, -0.0398 for the second.

Going from GGTGCGTA to ATGGTGTA, the “PBM E-score” value rises from -0.14 to -0.0203.

First: AGCGCTCC
Second: GGAGCACA
The “PBM E-score” value of the first is higher: 0.0281 for the first, -0.106 for the second.

First: TCTCACCA
Second: GCGGATCA
The “PBM E-score” value of the first is lower: -0.0291 for the first, 0.0678 for the second.

Going from CATATGCC to ATTTGCCA, the “PBM E-score” value falls from 0.0369 to -0.074.

First: AGATAACT
Second: CGGATGAG
The “PBM E-score” value of the first is lower: -0.069 for the first, 0.15 for the second.

First: AGACAACG
Second: ACGGTAGA
The “PBM E-score” value of the first is higher: 0.186 for the first, -0.0936 for the second.

First: AATTATAC
Second: AAAAGAGA
The “PBM E-score” value of the first is higher: 0.122 for the first, 0.0202 for the second.

First: CCTACACA
Second: ACCCATCG
The “PBM E-score” value of the first is higher: 0.0832 for the first, -0.0465 for the second.

Going from ACCATCCG to ACTTTGCG, the “PBM E-score” value rises from -0.0186 to 0.00022.

Compared with ATGAGCAG, TCAGCTGA is higher in “PBM E-score” value: -0.0237 for the first, 0.279 for the second.

First: ATGCCGGG
Second: CGAGTTTA
The “PBM E-score” value of the first is lower: -0.157 for the first, 0.0171 for the second.

First: AACTTTGC
Second: GTTGCTTA
The “PBM E-score” value of the first is lower: 0.0247 for the first, 0.097 for the second.

First: AACATCCG
Second: GCGTGTTA
The “PBM E-score” value of the first is higher: -0.0598 for the first, -0.0649 for the second.

Going from CCCTAACG to CCAAATTA, the “PBM E-score” value rises from -0.0356 to 0.12.

Compared with AAACCGAA, CCACTTTA is higher in “PBM E-score” value: -0.0367 for the first, 0.0978 for the second.

Compared with CTGAGGTA, CACTAAGG is lower in “PBM E-score” value: 0.104 for the first, 0.0299 for the second.

Compared with ACACATAT, GCGTGATA is lower in “PBM E-score” value: 0.0862 for the first, -0.00821 for the second.

Compared with CAATGACC, AATAGCCG is higher in “PBM E-score” value: -0.143 for the first, -0.0662 for the second.

First: CATTGTTC
Second: GCTATTGA
The “PBM E-score” value of the first is higher: 0.0751 for the first, -0.156 for the second.

Going from AAAGTGCC to CACGGATA, the “PBM E-score” value rises from -0.188 to 0.235.

Going from ACAGTGCA to ACTTCATA, the “PBM E-score” value falls from 0.178 to 0.048.

Compared with CCAGAGTA, CTGCCAGC is lower in “PBM E-score” value: 0.0429 for the first, -0.144 for the second.

Compared with ACTGCAAG, GGAGAGTA is higher in “PBM E-score” value: -0.172 for the first, -0.00931 for the second.

Compared with CACTTATA, TCTTAGAA is lower in “PBM E-score” value: -0.023 for the first, -0.0305 for the second.

First: ACTTTTGA
Second: ACCATCGC
The “PBM E-score” value of the first is lower: -0.0356 for the first, 0.139 for the second.

Going from ACAATACG to ACACACTG, the “PBM E-score” value rises from 0.0515 to 0.114.

Going from CGACTTCA to AGGATTGG, the “PBM E-score” value falls from 0.00997 to -0.0959.

Going from CCCAACCG to CACAAGTA, the “PBM E-score” value rises from -0.0616 to 0.0318.

Compared with AGAAGCAA, AGAGATCG is lower in “PBM E-score” value: 0.156 for the first, -0.06 for the second.

Going from AACCGCTC to CTAAGGCC, the “PBM E-score” value falls from -0.00049 to -0.125.

Compared with CATGTAAG, GCCTCGCA is lower in “PBM E-score” value: 0.0682 for the first, 0.0357 for the second.

Compared with AATCCACT, ACGTGTCT is lower in “PBM E-score” value: 0.0288 for the first, -0.117 for the second.

Compared with CCGAGGAA, CAGTCAGA is higher in “PBM E-score” value: -0.00498 for the first, 0.0195 for the second.

Compared with CCGTATAA, ACAGAGCT is lower in “PBM E-score” value: 0.151 for the first, -0.214 for the second.

Compared with CCGGGGGC, GACTATAC is higher in “PBM E-score” value: -0.377 for the first, 0.105 for the second.

First: ACGTTTTA
Second: TACCTTAA
The “PBM E-score” value of the first is lower: 0.00368 for the first, 0.017 for the second.

Going from ACAAATAG to CCCGTTTA, the “PBM E-score” value falls from 0.171 to 0.131.

First: CACCCCAA
Second: CCAGGCAG
The “PBM E-score” value of the first is higher: 0.0637 for the first, -0.226 for the second.

Going from CCCTGCCA to AAATCGTT, the “PBM E-score” value falls from 0.189 to 0.0869.

First: GGTATTGA
Second: AATACACT
The “PBM E-score” value of the first is higher: 0.114 for the first, 0.0862 for the second.

Compared with GCCTTTAC, GGTCTATA is higher in “PBM E-score” value: -0.0865 for the first, 0.0742 for the second.

Going from AGTGGGCC to CTTGCCAC, the “PBM E-score” value rises from -0.169 to -0.0947.

Compared with GTTGGGCA, AGTGCTTA is lower in “PBM E-score” value: 0.0543 for the first, -0.0349 for the second.

First: GTGTAAAA
Second: ATTTTAAA
The “PBM E-score” value of the first is lower: 0.0467 for the first, 0.0944 for the second.

First: ATGCGGGA
Second: CTCCTATC
The “PBM E-score” value of the first is higher: 0.0765 for the first, -0.136 for the second.

Going from AAGTAGGT to CGGATTGC, the “PBM E-score” value rises from -0.0619 to 0.161.

First: AGCGCAAC
Second: CACTTCAC
The “PBM E-score” value of the first is higher: 0.153 for the first, -0.0837 for the second.

Going from CCATTCCG to ATGTTCTG, the “PBM E-score” value rises from -0.0719 to 0.0745.

First: TCAAACAA
Second: CTTTGAAC
The “PBM E-score” value of the first is higher: 0.0877 for the first, 0.00817 for the second.

Compared with AAGTCAAG, GCATTAGC is higher in “PBM E-score” value: -0.0115 for the first, 0.0026 for the second.

First: CGGTCGAA
Second: ATTCTCCC
The “PBM E-score” value of the first is higher: 0.0932 for the first, 0.0178 for the second.

Compared with GGACCTCC, CAGTCTGA is higher in “PBM E-score” value: -0.12 for the first, -0.0255 for the second.

First: ACAGAGTA
Second: GGGTACCA
The “PBM E-score” value of the first is higher: -0.00075 for the first, -0.0939 for the second.

Compared with ATCGCCTA, ATCCAGAA is higher in “PBM E-score” value: -0.143 for the first, 0.028 for the second.

Going from GAGAAATA to AATAAGGC, the “PBM E-score” value falls from 0.153 to -0.0132.

First: ATTAAGAA
Second: GTTTTCGA
The “PBM E-score” value of the first is lower: 0.0555 for the first, 0.0644 for the second.

Compared with GGGGTGGA, AACGAAAG is higher in “PBM E-score” value: -0.166 for the first, -0.0319 for the second.

Going from CACAAATC to CATTGGTC, the “PBM E-score” value falls from 0.122 to -0.121.

Going from AAAGTTCC to GAGCCGGC, the “PBM E-score” value rises from -0.081 to -0.0198.
